{"source": "paper PMC12040169", "about": "(PLOS Biology, 2025)", "note": "Some of the results follow."}
{"test_system": "T1, CTL2-GFP (C. trachomatis L2/434/Bu, GFP-expressing)", "T1 construct": "L2/434/Bu, GFP-expressing", "set-up": "species or system HeLa; Intracellular C. trachomatis growth in HeLa cells, bulk GFP fluorescence relative to DMSO", "conditions": "28.5 h, 10 µM; inhibitor", "units": {"% of control remaining": "%"}}
{"smiles": "CC(N)c1cc2ccccc2o1", "note": "(centres unmarked) [CBK001492C]", "% of control remaining": 97.0491}
{"smiles": "COC(=O)c1nn(Cc2ccc(OC)cc2)c2ccccc12", "note": "[CBK093526]", "% of control remaining": 126.676}
{"smiles": "O=C(O)c1nn(Cc2ccc(Cl)c(Cl)c2)c2ccccc12", "note": "[CBK088455]", "% of control remaining": 100}
{"smiles": "O=C(O)CP(=O)(O)c1ccc(Cl)cc1", "note": "[CBK019291]", "% of control remaining": 113.513}
{"smiles": "Cc1cn(-c2ccc(OC(=O)NC(C)(C)C)c(Cl)c2)c(=O)n1C", "note": "[CBK025991]", "% of control remaining": 111.921}
{"smiles": "O=C(NNc1c(Cl)cccc1Cl)C(O)(c1ccccc1)c1ccccc1", "note": "[CBK262739]", "% of control remaining": 68.2881}
{"smiles": "O=[N+]([O-])c1ccc(Cl)cc1CN1CCN(c2ccccc2)CC1", "note": "[CBK261556]", "% of control remaining": 100}
{"smiles": "COc1cc(C(=O)Nc2ccc3c(c2)COC2(CCN(C(=O)OC(C)(C)C)CC2)O3)cc(OC)c1OC", "note": "[CBK091527]", "% of control remaining": 100}
{"smiles": "O=C(NCCCn1ccnc1)c1cc([N+](=O)[O-])cc([N+](=O)[O-])c1", "note": "[CBK261773]", "% of control remaining": 68.9833}
{"smiles": "CNC(=O)Oc1ccc(C2(C)SCCS2)cc1", "note": "[CBK023078]", "% of control remaining": 90.7167}
{"smiles": "CN(C)[C@H]1CCC[C@@H]1C(=O)Nc1ccc(Cl)c(Cl)c1", "note": "[CBK003406]", "% of control remaining": 51.8308}
{"smiles": "COc1ccc(CCn2nc(C(=O)O)c3ccccc32)cc1", "note": "[CBK093525]", "% of control remaining": 149.351}
{"smiles": "CCCCN1C(=O)C(O)(c2c(C)nn(CCC#N)c2N)c2ccccc21", "note": "(centres unmarked) [CBK306211]", "% of control remaining": 102.297}
{"smiles": "Clc1cccc(N2CCNCC2)n1", "note": "[CBK001379]", "% of control remaining": 123.249}
{"smiles": "CCOc1ccc(N2C(=O)/C(=C/c3ccc(Br)cc3)C(=O)NC2=S)cc1", "note": "[CBK263305]", "% of control remaining": 100}
{"smiles": "Cc1cc(/C=C2\\C(=O)NC(=O)N(Cc3ccccc3Cl)C2=O)c(C)n1-c1ccc(C(=O)O)cc1", "note": "[CBK265602]", "% of control remaining": 100}
{"smiles": "Cc1cc(/C=C2\\C(=O)NC(=O)N(C)C2=O)c(C)n1-c1ccc(Oc2ccc([N+](=O)[O-])cn2)cc1", "note": "[CBK264294]", "% of control remaining": 100}
{"smiles": "CCCN(CCc1cccnc1)C1Cc2cc(OC)c(OC)cc2C1", "note": "[CBK023935C]", "% of control remaining": 137.172}
{"smiles": "NS(=O)(=O)c1ccc(N/C=C2\\C(=O)NC(=O)N(Cc3ccccc3Cl)C2=O)cc1", "note": "[CBK265586]", "% of control remaining": 100}
{"smiles": "O=C(O)C(O)(c1ccccc1)c1cccs1", "note": "(centres unmarked) [CBK022808]", "% of control remaining": 109.868}
{"smiles": "CC1CN(C(=O)Oc2ccccc2)C(C)CN1CCCC(c1ccc(F)cc1)c1ccc(F)cc1", "note": "(centres unmarked) [CBK024993C]", "% of control remaining": 78.4487}
{"smiles": "COc1cc(/C=N/O)ccc1Oc1ccc([N+](=O)[O-])cc1[N+](=O)[O-]", "note": "[CBK261651]", "% of control remaining": 120.032}
{"smiles": "COc1ccccc1N1C(=O)NC(=O)/C(=C/NCCCO)C1=O", "note": "[CBK261618]", "% of control remaining": 100}
{"smiles": "O=C1NC(=O)N(c2ccc(Cl)cc2)C(=O)/C1=C\\NC(CO)(CO)CO", "note": "[CBK264421]", "% of control remaining": 100}
{"smiles": "CCOc1ccc(N2C(=O)NC(=O)/C(=C\\NC(C)(CO)CO)C2=O)cc1", "note": "[CBK261437]", "% of control remaining": 100}
{"smiles": "Cc1cccc(OP(=O)(O)Oc2cccc(C)c2C)c1C", "note": "[CBK261316]", "% of control remaining": 100}
{"smiles": "CCN(CC)CCN(C)Cc1ccc2ccc3cccc4ccc1c2c34", "note": "[CBK261859]", "% of control remaining": 95.2802}
{"smiles": "CCCCN1C(=O)C(O)(c2c(C)nn(CCO)c2N)c2ccccc21", "note": "(centres unmarked) [CBK304286]", "% of control remaining": 112.546}
{"smiles": "CN(C)C(=O)OCCn1c(=O)oc2cc(Cl)ccc21", "note": "[CBK306455]", "% of control remaining": 87.8619}
{"smiles": "Cc1cccc(N2C(=O)NC(=O)/C(=C/NC3CCN(Cc4ccccc4)CC3)C2=O)c1", "note": "[CBK261827]", "% of control remaining": 100}
{"smiles": "COc1ccc2c(c1)COC1(CCN(C(=O)Nc3ccc(N(C)C)cc3)CC1)O2", "note": "[CBK060753]", "% of control remaining": 100}
{"smiles": "COc1cc(Cl)ccc1NC(=O)Oc1cccc2cnccc12", "note": "[CBK012882]", "% of control remaining": 117.676}
{"smiles": "COc1cc(/C=C2\\C(=O)NC(=O)N(c3ccc([N+](=O)[O-])cc3)C2=O)ccc1OCC(=O)O", "note": "[CBK265418]", "% of control remaining": 100}
{"smiles": "CCOc1ccccc1CN1CCN(C)CC1", "note": "[CBK261577]", "% of control remaining": 100}
{"smiles": "O=C(Nc1cc([N+](=O)[O-])ccc1O)c1cccc(C(=O)Nc2cc([N+](=O)[O-])ccc2O)c1", "note": "[CBK261168]", "% of control remaining": 119.853}
{"smiles": "COc1cccc2c1OCCC2CNCCCc1ccccc1", "note": "(centres unmarked) [CBK007716]", "% of control remaining": 109.985}
{"smiles": "Cc1ccc(OP(=O)(NCCN2CCOCC2)Oc2ccc(C)cc2)cc1", "note": "[CBK261802]", "% of control remaining": 100}
{"smiles": "Cc1cc(Cl)c(OC(=O)NC2CCCCC2)cc1C", "note": "[CBK022948]", "% of control remaining": 120.167}
{"smiles": "CN(C)C(=O)c1ccc(Cn2nc(C(=O)Nc3nccs3)c3ccccc32)cc1", "note": "[CBK047701]", "% of control remaining": 103.165}
{"smiles": "NC(=O)C1=CN([C@@H]2O[C@H](CO)[C@H](O)C2O)C2N=CN=C(N)C12", "note": "(some centres unmarked) [CBK201209]", "% of control remaining": 115.282}
{"smiles": "CNC(=O)Oc1ccccc1/C=N/N(C)C", "note": "[CBK023194]", "% of control remaining": 113.77}
{"smiles": "COC(=O)c1cccc2c3c(n(Cc4ccccc4)c12)CCCC3=O", "note": "[CBK036304]", "% of control remaining": 65.6295}
{"smiles": "CC(C)(C)OC(=O)N1CCC2(CC1)OCc1cc(-c3cccc(OCC(=O)N4CCOCC4)c3)ccc1O2", "note": "[CBK105254]", "% of control remaining": 100}
{"smiles": "NC(=O)Cn1cc(C(=O)COc2ccccc2)c2ccccc21", "note": "[CBK267650]", "% of control remaining": 110.609}
{"smiles": "O=C(Cn1cc(C(=O)c2ccco2)c2ccccc21)NCCc1c[nH]c2ccccc12", "note": "[CBK267509]", "% of control remaining": 158.62}
{"smiles": "COc1cc(C=C2C(=O)NC(=O)NC2=O)cc(I)c1OCc1ccc(Cl)cc1Cl", "note": "[CBK262528]", "% of control remaining": 100}
{"smiles": "C=CCSc1nnc(OC(=O)N(C)C)n1-c1ccc(Cl)cc1", "note": "[CBK004817]", "% of control remaining": 120.417}
{"smiles": "CN(Cc1ccc(-c2ccc(S(C)(=O)=O)cc2)nc1)C1CCN(C(=O)Oc2ccc(F)cc2)CC1", "note": "[CBK166097]", "% of control remaining": 124.332}
{"smiles": "O=C(Cn1cc(/C=C2/C(=O)NC(=S)N(c3ccc(Cl)cc3)C2=O)c2ccccc21)Nc1ccccc1", "note": "[CBK263535]", "% of control remaining": 100}
{"smiles": "O=C(N/N=C1/CN2CCC1CC2)c1cccc(O)c1", "note": "[CBK262188C]", "% of control remaining": 106.4}
